The list does not hold the whole screen: it gathers tests that were run many times, whatever their T/C, doses with no T/C, and many T/C values between a quarter and a half above the control. Further doses and runs are listed elsewhere. T/C is the treated group as % of the vehicle group. Some doses have a count of surviving animals in place of a T/C: the source files T/C as zero there, which appears to mark a toxic dose or a test without result, not a measured value. Some survivor counts are full or nearly so, which does not show that the dose was tolerated: survival well below the control is almost never listed, so the zero probably covers shortened survival too. Counts of survivors are from the toxicity check (mostly the fifth day) where no day follows; animals may have died later. Schedule codes are those of the source, read here as Q, the interval in days (D) or hours (H), X, the number of doses. Some entries hold several experiments; the results are listed from low to high. Some schedules carry Z or #; the key to these is not given. Where survival is the endpoint, this PubChem deposit counts one and a half times the control or more as active, and values a quarter to a half above the control carry no call in these data; other NCI protocols may use other cut-offs. Marks such as (2×) count equal records among those shown.
Tested on: L1210 leukemia ip in BDF1 mice, survival T/C
Test: NCI In Vivo Anticancer Drug Screen. Data for tumor model L1210 Leukemia (intraperitoneal) in B6D2F1 (BDF1) mice
Details: T/C endpoint: mean survival time, higher T/C = longer survival
[1] = dose: 100.0 mg/kg/injection, schedule: Q01DX009 (ip), vehicle: saline with Tween-80
[2] = dose: 400.0 mg/kg/injection, schedule: Q01DX009 (ip), vehicle: saline with Tween-80
[3] = dose: 200.0 mg/kg/injection, schedule: Q01DX009 (ip), vehicle: Klucel (hydroxypropylcellulose) (HPC)
[4] = dose: 400.0 mg/kg/injection, schedule: Q01DX009 (ip), vehicle: Klucel (hydroxypropylcellulose) (HPC)
[5] = dose: 200.0 mg/kg/injection, schedule: Q01DX009 (ip), vehicle: saline
[6] = dose: 400.0 mg/kg/injection, schedule: Q04DX003 (ip), vehicle: saline
[7] = dose: 400.0 mg/kg/injection, schedule: Q01DX001 (ip), vehicle: saline
[8] = dose: 400.0 mg/kg/injection, schedule: Q01DX009 (ip), vehicle: saline
[9] = dose: 400.0 mg/kg/injection, schedule: Q04DX003 (ip), vehicle: Klucel (hydroxypropylcellulose) (HPC)
[10] = dose: 200.0 mg/kg/injection, schedule: Q01DX009 (ip), vehicle: saline with Tween-80

For `CN1CCCN(C)CC1`, the survivor count [1] was 3 of 6 and the survivor count [2] was 3 of 6.
`N#[N+]c1nc2ncnc(N)c2[nH]1` was tested, and the survivor count (dose: 50.0 mg/kg/injection, schedule: Q01DX Z (ip), vehicle: saline) was 3 of 8 and the survivor count (dose: 100.0 mg/kg/injection, schedule: Q01DX Z (ip), vehicle: saline) was 1 of 8.
For `CCCc1cc2c(cc1CS(=O)(=O)c1ccccc1)OCO2`, the survivor count [3] was 6 of 6, the T/C [4] was 136 % of control and the survivor count [4] was 1 of 6.
For `O=S(=O)(NC1CCc2ccccc21)c1ccccc1` (stereo not drawn), the survivor count [2] was 6 of 6.
In the case of `COc1cccc(/C=C/[N+](=O)[O-])c1OC`, the survivor count (dose: 100.0 mg/kg/injection, schedule: Q01DX009 (ip), vehicle: saline) is reported as 2 of 6, the survivor count [5] is reported as 0 of 6 and the survivor count (dose: 300.0 mg/kg/injection, schedule: Q01DX009 (ip), vehicle: saline) is reported as 0 of 6. For the same compound, the survivor count (dose: 400.0 mg/kg/injection, schedule: Q01DX001 (ip), vehicle: other) was 0 of 4 and the survivor count [6] was 1 of 6.
For `CCCCC1(C2CCCC2)NC(C)(C)CC(C)O1` (stereo not drawn), the survivor count [2] was 1 of 6.
With `NNCC(F)(F)F` the survivor count (dose: 200.0 mg/kg/injection, schedule: Q01DX001 (ip), vehicle: saline) was 1 of 6 and the survivor count [7] was 0 of 6.
For `CCN(CC)CCCC(C)Nc1cc(N)nc2nc(-c3ccc(Cl)cc3)c(-c3ccc(Cl)cc3)nc12` (stereo not drawn), the survivor count (dose: 150.0 mg/kg/injection, schedule: Q01DX001 (ip), vehicle: other) was 1 of 6, the survivor count (dose: 150.0 mg/kg/injection, schedule: Q01DX009 (ip), vehicle: Klucel (hydroxypropylcellulose) (HPC)) was 0 of 6 and the survivor count (dose: 300.0 mg/kg/injection, schedule: Q01DX001 (ip), vehicle: other) was 0 of 6.
`CCC[As](=O)(O)CC` was tested, and the survivor count [8] was 0 of 6.
`[CH3][Sn]([CH3])([CH3])[CH2][Sn]([CH3])([CH3])[CH3]` was tested, and the survivor count [5] was 0 of 3 and the survivor count [8] was 0 of 3.
With `CCN(CC)CCCC(C)Nc1ccnc(C)c1` (stereo not drawn) the survivor count (dose: 75.0 mg/kg/injection, schedule: Q04DX003 (ip), vehicle: other) was 0 of 6, the survivor count (dose: 150.0 mg/kg/injection, schedule: Q04DX003 (ip), vehicle: other) was 0 of 6 and the survivor count (dose: 300.0 mg/kg/injection, schedule: Q04DX003 (ip), vehicle: other) was 0 of 6.
In the case of `CNC(C)=O`, the survivor count (dose: 250.0 mg/kg/injection, schedule: Q01DX Z (ip), vehicle: carboxymethylcellulose (CMC)) is reported as 10 of 10.
`C=CS(=O)(=O)CCCC` was tested, and the survivor count [2] was 0 of 3.
For `CCCCCCCCCCCCCCCCCC(=O)[O][Hg][c]1ccccc1`, the survivor count (dose: 40.0 mg/kg/injection, schedule: Q01DX009 (ip), vehicle: saline with Tween-80) was 0 of 6, the survivor count (dose: 64.0 mg/kg/injection, schedule: Q01DX015 (ip), vehicle: carboxymethylcellulose (CMC)) was 1 of 6 and the survivor count (dose: 80.0 mg/kg/injection, schedule: Q01DX001 (ip), vehicle: carboxymethylcellulose (CMC)) was 0 of 4. For the same compound, the survivor count (dose: 80.0 mg/kg/injection, schedule: Q04DX003 (ip), vehicle: saline) was 0 of 6.
With `OC1CCC2CCCC2C1` (stereo not drawn) the survivor count [4] was 3 of 6.
In the case of `CCCCOP(=O)(CCCC)OCCCC`, the survivor count (dose: 100.0 mg/kg/injection, schedule: Q04DX003 (ip), vehicle: saline with Tween-80) is reported as 6 of 6 and the survivor count (dose: 200.0 mg/kg/injection, schedule: Q04DX003 (ip), vehicle: saline with Tween-80) is reported as 0 of 6.
`COc1ccc(OC)c(NC(=O)Nc2ccc([As](=O)(O)O)cc2)c1` was tested, and the survivor count (dose: 100.0 mg/kg/injection, schedule: Q04DX003 (ip), vehicle: Klucel (hydroxypropylcellulose) (HPC)) was 6 of 6 and the survivor count [9] was 5 of 6.
In the case of `C[N+](C)(C)CC(O)CC#N` (stereo not drawn), the survivor count (dose: 50.0 mg/kg/injection, schedule: Q01DX009 (ip), vehicle: Klucel (hydroxypropylcellulose) (HPC)) is reported as 5 of 6, the survivor count (dose: 100.0 mg/kg/injection, schedule: Q01DX009 (ip), vehicle: Klucel (hydroxypropylcellulose) (HPC)) is reported as 2 of 6 and the survivor count [3] is reported as 0 of 6.
For `N#CC1(C#N)OC(C#N)(C#N)c2ccccc21`, the survivor count (dose: 100.0 mg/kg/injection, schedule: Q01DX001 (ip), vehicle: saline with Tween-80) was 0 of 3, the survivor count (dose: 200.0 mg/kg/injection, schedule: Q01DX001 (ip), vehicle: saline with Tween-80) was 0 of 3 and the survivor count (dose: 400.0 mg/kg/injection, schedule: Q01DX001 (ip), vehicle: saline with Tween-80) was 0 of 3.
With `O=C(NC(=S)Nc1ccc2ccccc2c1)c1ccc(Cl)cc1Cl` the T/C [1] was 94, 100 (2×), 105 % of control, the T/C [10] was 89, 93, 97 % of control and the survivor count [10] was 6 of 6. The T/C [2] was 86, 94, 103, 110 % of control.
With `O=C(CCN1CC1)NCCCCCCCCNC(=O)CCN1CC1` the T/C (dose: 11.0 mg/kg/injection, schedule: Q01DX009 (ip), vehicle: carboxymethylcellulose (CMC)) was 141 % of control, the T/C (dose: 14.6 mg/kg/injection, schedule: Q01DX009 (ip), vehicle: carboxymethylcellulose (CMC)) was 133 % of control and the T/C (dose: 17.0 mg/kg/injection, schedule: Q01DX009 (ip), vehicle: carboxymethylcellulose (CMC)) was 143 % of control. For the same compound, the T/C (dose: 22.0 mg/kg/injection, schedule: Q01DX009 (ip), vehicle: carboxymethylcellulose (CMC)) was 134 % of control, the T/C (dose: 40.0 mg/kg/injection, schedule: Q01DX009 (ip), vehicle: carboxymethylcellulose (CMC)) was 128 % of control and the T/C (dose: 50.0 mg/kg/injection, schedule: Q01DX001 (ip), vehicle: carboxymethylcellulose (CMC)) was 125 % of control. For the same compound, the survivor count (dose: 100.0 mg/kg/injection, schedule: Q01DX001 (ip), vehicle: carboxymethylcellulose (CMC)) was 0 of 4, the survivor count (dose: 200.0 mg/kg/injection, schedule: Q01DX001 (ip), vehicle: carboxymethylcellulose (CMC)) was 0 of 4 and the survivor count (dose: 400.0 mg/kg/injection, schedule: Q01DX001 (ip), vehicle: carboxymethylcellulose (CMC)) was 0 of 4.
With `Oc1ccccc1C=NC1CCCCC1.Oc1ccccc1C=NC1CCCCC1.[Co+2]` the survivor count [9] was 3 of 6.
In the case of `O=C(SCCN1CCCC1)N1c2ccccc2Sc2ccc(Cl)cc21`, the survivor count (dose: 300.0 mg/kg/injection, schedule: Q01DX001 (ip), vehicle: carboxymethylcellulose (CMC)) is reported as 0 of 6.
For `C=C1CC(CCCCCC2CC(=C)C(=O)O2)OC1=O` (stereo not drawn), the survivor count (dose: 100.0 mg/kg/injection, schedule: Q04DX002 (ip), vehicle: saline) was 3 of 3, the survivor count (dose: 200.0 mg/kg/injection, schedule: Q04DX002 (ip), vehicle: saline) was 3 of 3 and the survivor count (dose: 400.0 mg/kg/injection, schedule: Q04DX002 (ip), vehicle: saline) was 2 of 3.
In the case of `O=c1[nH]cnc2n[nH]nc12`, the T/C (dose: 600.0 mg/kg/injection, schedule: Q01DX009 (ip), vehicle: other) is reported as 126 % of control.
For `COS(=O)(=O)CCCCCC[N+](C)(C)C`, the survivor count [7] was 2 of 4.
With `OC(COc1cccc2ccccc12)CN1CCCCC1` (stereo not drawn) the survivor count (dose: 100.0 mg/kg/injection, schedule: Q04DX002 (ip), vehicle: Klucel (hydroxypropylcellulose) (HPC)) was 2 of 3, the survivor count (dose: 200.0 mg/kg/injection, schedule: Q04DX002 (ip), vehicle: Klucel (hydroxypropylcellulose) (HPC)) was 0 of 3 and the survivor count (dose: 400.0 mg/kg/injection, schedule: Q04DX002 (ip), vehicle: Klucel (hydroxypropylcellulose) (HPC)) was 0 of 3.
In the case of `COc1ncnc(Cl)c1[N+](=O)[O-]`, the survivor count [9] is reported as 3 of 6.
`Cc1c2cnccc2c(C)c2c1c1ccccc1n2CCOC(=O)c1ccccc1` was tested, and the survivor count [10] was 6 of 6.
In the case of `CN1CCC(C[CH2][Sn]([c]2ccccc2)([c]2ccccc2)[c]2ccccc2)CC1`, the survivor count (dose: 50.0 mg/kg/injection, schedule: Q04DX002 (ip), vehicle: saline with Tween-80) is reported as 2 of 3, the survivor count (dose: 100.0 mg/kg/injection, schedule: Q04DX002 (ip), vehicle: saline with Tween-80) is reported as 0 of 3 and 2 of 3 and the survivor count (dose: 200.0 mg/kg/injection, schedule: Q04DX002 (ip), vehicle: saline with Tween-80) is reported as 0 of 3. For the same compound, the survivor count (dose: 400.0 mg/kg/injection, schedule: Q04DX002 (ip), vehicle: saline with Tween-80) was 0 of 3.
For `Cn1c(=O)n(C)c2ccccc21`, the survivor count [5] was 0 of 6 and the survivor count [6] was 2 of 6.

Reference: PubChem BioAssay AID248 (DTP/NCI, 2004)
